These results are taken from PMC5996148.

The list shows a part of the results. For some of these results: The source does not settle which construct or isoform was used.

Common to all, as to assay: protein microarray (ProtoArray v5.0), streptavidin-Alexa Fluor 647
Common to all, as to settings: 3'-biotin; 20 mM Tris (pH 7.5), 5 mM MgCl2, 100 mM KCl, 0.1% Tween-20, A/T-rich and random oligonucleotide blockers; temperature not stated; high values mean tight binding

Assay [1] deals with PCDHGC4 (human).
Assay [2] has as its system PCDHGC5 (human).
The subject of assay [3] is PCK1 (human).
The test system of assay [4] is PCNA (human).
The subject of assay [5] is PCTP (human).
Assay [6] addresses T1, PDCD5 (UniProt O14737).
T1 sequence: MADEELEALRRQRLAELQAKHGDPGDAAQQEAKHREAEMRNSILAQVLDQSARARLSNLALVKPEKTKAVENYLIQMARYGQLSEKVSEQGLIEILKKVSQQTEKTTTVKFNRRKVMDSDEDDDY

Assay [7] relates to PDCL (human).
The subject of assay [8] is PDE4A (human).
For assay [9], the system named is PDE4D (human).
For assay [10], the system named is PDE8A (human).

On to “GGGGACAGGGGTATGGGGAGGGG [G4-3 biotinylated (CtG)]”, for which the binding signal in assay [1] is -0.319 z-score; in assay [2] it was -0.319 z-score; in [3], -0.337 z-score; in assay [4], -0.324 z-score; in assay [5], -0.342 z-score; in assay [6] it was -0.331 z-score. Further, the binding signal in assay [7] is -0.323 z-score; in assay [8] it was -0.313 z-score; in [9] it was -0.3 z-score; in assay [10], -0.351 z-score.
